No constants are given. Whether binding was seen depends on the method and setting. Some results given as binding are weak or reduced against the parent protein; the word gives no strength.
Key:
[1] = molecular target: T1, recombinant human EphA5 (rhEphA5) antigen (Homo sapiens, UniProt P54756); experiment: SPR (Biacore T200), single cycle kinetics, IgG captured on anti-human IgG CM5 chip, rhEphA5 as analyte
[2] = molecular target: T1, recombinant human EphA5 (rhEphA5) antigen; experiment: SPR (Biacore T200), multi-cycle kinetics, IgG captured on anti-human IgG chip, human EphA5 as analyte
[3] = molecular target: T1, recombinant human EphA5 (rhEphA5) antigen; experiment: Biacore T200 single cycle kinetics, IgG from HEK supernatant captured on anti-human IgG CM5 chip, human EphA5 as analyte
[4] = molecular target: T1, recombinant human EphA5 (rhEphA5) antigen; experiment: Biacore T200 multi-cycle kinetics, purified IgG captured on anti-human IgG CM5 chip, recombinant EphA5 as analyte
[5] = molecular target: T1, recombinant human EphA5 (rhEphA5) antigen; experiment: Biacore T200 multi-cycle kinetics, purified IgG captured, recombinant EphA5 as analyte
[6] = molecular target: T1, recombinant human EphA5 (rhEphA5) antigen; experiment: SPR (Biacore T200), multi-cycle kinetics, IgG captured on anti-human IgG chip, human EphA5 as analyte [continued]

The chains behind the UniProt entries cited, without tags or fusion partners. Where a name states a change or a piece, a line headed by the entry shows the natural chain unless it says otherwise.
UniProt P54756: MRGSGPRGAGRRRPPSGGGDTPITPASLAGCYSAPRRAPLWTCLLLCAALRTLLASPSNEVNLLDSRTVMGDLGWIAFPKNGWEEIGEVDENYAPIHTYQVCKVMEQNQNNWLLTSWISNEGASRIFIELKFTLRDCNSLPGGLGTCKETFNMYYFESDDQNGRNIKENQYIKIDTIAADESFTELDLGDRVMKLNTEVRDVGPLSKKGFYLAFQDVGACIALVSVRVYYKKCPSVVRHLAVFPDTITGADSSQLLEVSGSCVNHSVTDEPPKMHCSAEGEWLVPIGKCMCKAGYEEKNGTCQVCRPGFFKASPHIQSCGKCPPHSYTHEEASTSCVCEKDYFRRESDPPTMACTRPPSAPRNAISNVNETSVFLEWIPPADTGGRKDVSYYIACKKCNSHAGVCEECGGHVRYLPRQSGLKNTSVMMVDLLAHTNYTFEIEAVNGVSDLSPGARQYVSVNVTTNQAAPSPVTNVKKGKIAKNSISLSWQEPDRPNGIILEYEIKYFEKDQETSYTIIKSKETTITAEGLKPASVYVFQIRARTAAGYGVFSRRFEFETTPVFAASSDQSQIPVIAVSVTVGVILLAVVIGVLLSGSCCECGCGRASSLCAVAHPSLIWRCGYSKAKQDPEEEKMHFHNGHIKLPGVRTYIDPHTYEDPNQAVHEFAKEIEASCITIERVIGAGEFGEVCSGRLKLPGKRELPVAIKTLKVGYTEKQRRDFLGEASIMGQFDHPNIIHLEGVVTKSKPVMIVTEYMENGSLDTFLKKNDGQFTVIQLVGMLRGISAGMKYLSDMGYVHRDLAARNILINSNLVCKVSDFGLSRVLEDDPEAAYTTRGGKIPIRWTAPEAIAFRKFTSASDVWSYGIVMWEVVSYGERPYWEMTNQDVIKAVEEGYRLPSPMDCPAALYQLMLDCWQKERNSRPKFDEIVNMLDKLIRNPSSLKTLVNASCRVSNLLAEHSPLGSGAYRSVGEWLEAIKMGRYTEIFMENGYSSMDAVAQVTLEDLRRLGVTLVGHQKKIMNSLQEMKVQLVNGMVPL

| Binder | binding [1] | binding [2] | binding [3] | binding [4] | binding [5] | binding [6] |
| --- | --- | --- | --- | --- | --- | --- |
| VH4/VK1 (antibody, human IgG1, kappa, V domains shown) VH: EVQLVESGGGLVQPGGSLKLSCAASGFTFSTFGIHWVRQAPGKGLEWVAYISGASTTIYYADTVKGRFTISRDNSKNTLYLQMNSLRAEDTAVYYCARYGTSFPYGLDYWGQGTLVTVSS VL: DIVMTQSPGSLAVSLGERATINCKASQSVDYDGDSYMNWYQQKPGKAPKLLIYGASNLESGIPDRFSGSGSGTDFTLTISRLEEEDAASYYCQQSNEDPFTFGQGTKLEIKR | binds | – | binds | – | – | – |
| VH6/VK1 (antibody, human IgG1, kappa, V domains shown) VH: EVQLVESGGGLVQPGGSLKLSCAASGFTFSTFGIHWVRQAPGKGLEWVASISGASTTIYYADSVKGRFTISRDNSKNTLYLQMNSLRAEDTAVYYCARYGTSFPYGLDYWGQGTLVTVSS VL: DIVMTQSPGSLAVSLGERATINCKASQSVDYDGDSYMNWYQQKPGKAPKLLIYGASNLESGIPDRFSGSGSGTDFTLTISRLEEEDAASYYCQQSNEDPFTFGQGTKLEIKR | binds | – | binds | – | – | – |
| VH5/VK1 (antibody, human IgG1, kappa, V domains shown) VH: EVQLVESGGGLVQPGGSLKLSCAASGFTFSTFGIHWVRQAPGKGLEWVAYISGASTTIYYADSVKGRFTISRDNSKNTLYLQMNSLRAEDTAVYYCARYGTSFPYGLDYWGQGTLVTVSS VL: DIVMTQSPGSLAVSLGERATINCKASQSVDYDGDSYMNWYQQKPGKAPKLLIYGASNLESGIPDRFSGSGSGTDFTLTISRLEEEDAASYYCQQSNEDPFTFGQGTKLEIKR | binds | – | binds | – | – | – |
| VH4/VK5 (antibody, human IgG1, kappa, V domains shown) VH: EVQLVESGGGLVQPGGSLKLSCAASGFTFSTFGIHWVRQAPGKGLEWVAYISGASTTIYYADTVKGRFTISRDNSKNTLYLQMNSLRAEDTAVYYCARYGTSFPYGLDYWGQGTLVTVSS VL: DIVMTQSPDSLAVSLGERATINCKSSQSVDYDGDSYMNWYQQKPGKAPKLLIYGASNLESGIPDRFSGSGSGTDFTLTISRLEPEDAAVYYCQQSNEDPFTFGQGTKLEIKR | binds | – | binds | – | – | – |
| VH5/VK5 (antibody, human IgG1, kappa, V domains shown) VH: EVQLVESGGGLVQPGGSLKLSCAASGFTFSTFGIHWVRQAPGKGLEWVAYISGASTTIYYADSVKGRFTISRDNSKNTLYLQMNSLRAEDTAVYYCARYGTSFPYGLDYWGQGTLVTVSS VL: DIVMTQSPDSLAVSLGERATINCKSSQSVDYDGDSYMNWYQQKPGKAPKLLIYGASNLESGIPDRFSGSGSGTDFTLTISRLEPEDAAVYYCQQSNEDPFTFGQGTKLEIKR | binds | – | binds | – | – | – |
| VH6/VK5 (antibody, human IgG1, kappa, V domains shown) VH: EVQLVESGGGLVQPGGSLKLSCAASGFTFSTFGIHWVRQAPGKGLEWVASISGASTTIYYADSVKGRFTISRDNSKNTLYLQMNSLRAEDTAVYYCARYGTSFPYGLDYWGQGTLVTVSS VL: DIVMTQSPDSLAVSLGERATINCKSSQSVDYDGDSYMNWYQQKPGKAPKLLIYGASNLESGIPDRFSGSGSGTDFTLTISRLEPEDAAVYYCQQSNEDPFTFGQGTKLEIKR | binds | – | binds | – | – | – |
| VH6/VK2 (antibody, human IgG1, kappa, V domains shown) VH: EVQLVESGGGLVQPGGSLKLSCAASGFTFSTFGIHWVRQAPGKGLEWVASISGASTTIYYADSVKGRFTISRDNSKNTLYLQMNSLRAEDTAVYYCARYGTSFPYGLDYWGQGTLVTVSS VL: DIVMTQSPDSLAVSLGERATINCKASQSVDYDGDSYMNWYQQKPGKAPKLLIYGASNLESGIPDRFSGSGSGTDFTLTISRLEPEDAASYYCQQSNEDPFTFGQGTKLEIKR | binds | – | binds | – | – | – |

Second part, the binder after the results:

| binding [1] | binding [2] | binding [3] | binding [4] | binding [5] | binding [6] | Binder |
| --- | --- | --- | --- | --- | --- | --- |
| binds | binds | – | – | – | – | chimeric antibody VH0/VK0 (murine 11C12 variable regions, human IgG1 and kappa constant regions) (antibody, V domains shown) VH: EVTLKESGGGLVQPGGSRKLSCAASGFTFSTFGIHWVRQAPEKGLEWVAYISGASTTIYYADTVKGRFTISRDNPKNTLFLQMTSLRSEDTAMYYCARYGTSFPYGLDYWGQGTSVTVSS VL: DIVMTQSPGSLAVSLGQRATISCKASQSVDYDGDSYMNWYQQKPGQPPKLLIYGASNLESGIPARFSGSGSGTDFTLNIHPVEEEDAASYYCQQSNEDPFTFGSGTKLEIKR |
| binds | – | binds | – | – | – | VH4/VK2 (antibody, human IgG1, kappa, V domains shown) VH: EVQLVESGGGLVQPGGSLKLSCAASGFTFSTFGIHWVRQAPGKGLEWVAYISGASTTIYYADTVKGRFTISRDNSKNTLYLQMNSLRAEDTAVYYCARYGTSFPYGLDYWGQGTLVTVSS VL: DIVMTQSPDSLAVSLGERATINCKASQSVDYDGDSYMNWYQQKPGKAPKLLIYGASNLESGIPDRFSGSGSGTDFTLTISRLEPEDAASYYCQQSNEDPFTFGQGTKLEIKR |
| binds | binds | binds | binds | binds | – | VH4/VK4 (antibody, human IgG1, kappa, V domains shown) VH: EVQLVESGGGLVQPGGSLKLSCAASGFTFSTFGIHWVRQAPGKGLEWVAYISGASTTIYYADTVKGRFTISRDNSKNTLYLQMNSLRAEDTAVYYCARYGTSFPYGLDYWGQGTLVTVSS VL: DIVMTQSPDSLAVSLGERATINCKSSQSVDYDGDSYMNWYQQKPGKAPKLLIYGASNLESGIPDRFSGSGSGTDFTLTISRLEPEDAASYYCQQSNEDPFTFGQGTKLEIKR |
| binds | – | binds | binds | binds | binds | VH5/VK2 (antibody, human IgG1, kappa, V domains shown) VH: EVQLVESGGGLVQPGGSLKLSCAASGFTFSTFGIHWVRQAPGKGLEWVAYISGASTTIYYADSVKGRFTISRDNSKNTLYLQMNSLRAEDTAVYYCARYGTSFPYGLDYWGQGTLVTVSS VL: DIVMTQSPDSLAVSLGERATINCKASQSVDYDGDSYMNWYQQKPGKAPKLLIYGASNLESGIPDRFSGSGSGTDFTLTISRLEPEDAASYYCQQSNEDPFTFGQGTKLEIKR |
| binds | – | binds | – | – | – | VH6/VK3 (antibody, human IgG1, kappa, V domains shown) VH: EVQLVESGGGLVQPGGSLKLSCAASGFTFSTFGIHWVRQAPGKGLEWVASISGASTTIYYADSVKGRFTISRDNSKNTLYLQMNSLRAEDTAVYYCARYGTSFPYGLDYWGQGTLVTVSS VL: DIVMTQSPDSLAVSLGERATINCKASQSVDYDGDSYMNWYQQKPGKAPKLLIYGASNLESGIPDRFSGSGSGTDFTLTISRLEPEDAAVYYCQQSNEDPFTFGQGTKLEIKR |
| binds | – | binds | – | – | – | VH6/VK4 (antibody, human IgG1, kappa, V domains shown) VH: EVQLVESGGGLVQPGGSLKLSCAASGFTFSTFGIHWVRQAPGKGLEWVASISGASTTIYYADSVKGRFTISRDNSKNTLYLQMNSLRAEDTAVYYCARYGTSFPYGLDYWGQGTLVTVSS VL: DIVMTQSPDSLAVSLGERATINCKSSQSVDYDGDSYMNWYQQKPGKAPKLLIYGASNLESGIPDRFSGSGSGTDFTLTISRLEPEDAASYYCQQSNEDPFTFGQGTKLEIKR |
| binds | – | binds | binds | binds | binds | VH5/VK4 (antibody, human IgG1, kappa, V domains shown) VH: EVQLVESGGGLVQPGGSLKLSCAASGFTFSTFGIHWVRQAPGKGLEWVAYISGASTTIYYADSVKGRFTISRDNSKNTLYLQMNSLRAEDTAVYYCARYGTSFPYGLDYWGQGTLVTVSS VL: DIVMTQSPDSLAVSLGERATINCKSSQSVDYDGDSYMNWYQQKPGKAPKLLIYGASNLESGIPDRFSGSGSGTDFTLTISRLEPEDAASYYCQQSNEDPFTFGQGTKLEIKR |

— patent publication US20260216365A1, “ANTIBODY-DRUG CONJUGATES AGAINST THE RECEPTOR TYROSINE KINASE EPHA5” (Rutgers, The State University of New Jersey, priority 2021, published 2026)
